Data as given in PMC11189301, “Structure of the human outer kinetochore KMN network complex” (Nature Structural & Molecular Biology, 2024).
No constants are given. Whether binding was seen depends on the method and setting. Each block holds one molecule with its values, some of them ahead of it.

Protein sequences, listed by entry. Tags and fused reporters are not part of them. Lines headed by an entry give the natural chain unless they say otherwise; changes in a name come on top.
UniProt O95229: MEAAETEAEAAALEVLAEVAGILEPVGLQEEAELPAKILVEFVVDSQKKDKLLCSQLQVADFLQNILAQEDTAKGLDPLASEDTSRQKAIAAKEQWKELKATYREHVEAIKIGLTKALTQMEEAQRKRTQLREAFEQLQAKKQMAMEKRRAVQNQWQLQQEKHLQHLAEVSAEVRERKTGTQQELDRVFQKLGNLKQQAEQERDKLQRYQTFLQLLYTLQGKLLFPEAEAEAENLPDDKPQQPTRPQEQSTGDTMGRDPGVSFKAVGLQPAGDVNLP
UniProt Q9H081: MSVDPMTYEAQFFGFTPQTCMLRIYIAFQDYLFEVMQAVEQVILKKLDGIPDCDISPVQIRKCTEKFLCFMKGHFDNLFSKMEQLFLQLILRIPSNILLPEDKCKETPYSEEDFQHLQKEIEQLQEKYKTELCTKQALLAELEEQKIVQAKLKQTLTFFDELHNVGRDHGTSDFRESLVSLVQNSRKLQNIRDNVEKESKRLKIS
UniProt Q6P1K2: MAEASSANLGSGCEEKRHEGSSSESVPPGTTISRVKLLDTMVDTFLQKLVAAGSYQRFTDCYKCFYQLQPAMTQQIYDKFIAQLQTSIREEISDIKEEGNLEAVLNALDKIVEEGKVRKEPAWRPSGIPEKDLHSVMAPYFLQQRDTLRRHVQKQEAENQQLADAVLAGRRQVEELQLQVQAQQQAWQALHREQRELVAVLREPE
UniProt Q9H410: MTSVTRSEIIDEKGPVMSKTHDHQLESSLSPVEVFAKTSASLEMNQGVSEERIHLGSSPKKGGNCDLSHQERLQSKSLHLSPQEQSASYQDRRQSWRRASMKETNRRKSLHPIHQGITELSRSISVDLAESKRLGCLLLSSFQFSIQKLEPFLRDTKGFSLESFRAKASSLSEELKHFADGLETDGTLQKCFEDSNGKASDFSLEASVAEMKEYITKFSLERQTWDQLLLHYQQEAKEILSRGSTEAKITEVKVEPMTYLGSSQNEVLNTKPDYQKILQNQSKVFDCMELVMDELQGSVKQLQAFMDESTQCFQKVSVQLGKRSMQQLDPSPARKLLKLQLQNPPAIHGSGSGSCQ
UniProt Q96IY1: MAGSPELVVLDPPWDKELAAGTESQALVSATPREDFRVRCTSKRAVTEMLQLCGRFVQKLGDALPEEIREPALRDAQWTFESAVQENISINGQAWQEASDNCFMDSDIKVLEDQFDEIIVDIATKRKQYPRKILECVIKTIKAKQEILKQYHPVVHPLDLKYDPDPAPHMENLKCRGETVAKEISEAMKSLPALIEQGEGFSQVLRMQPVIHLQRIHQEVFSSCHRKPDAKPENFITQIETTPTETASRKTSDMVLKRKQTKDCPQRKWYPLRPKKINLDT
UniProt O14777: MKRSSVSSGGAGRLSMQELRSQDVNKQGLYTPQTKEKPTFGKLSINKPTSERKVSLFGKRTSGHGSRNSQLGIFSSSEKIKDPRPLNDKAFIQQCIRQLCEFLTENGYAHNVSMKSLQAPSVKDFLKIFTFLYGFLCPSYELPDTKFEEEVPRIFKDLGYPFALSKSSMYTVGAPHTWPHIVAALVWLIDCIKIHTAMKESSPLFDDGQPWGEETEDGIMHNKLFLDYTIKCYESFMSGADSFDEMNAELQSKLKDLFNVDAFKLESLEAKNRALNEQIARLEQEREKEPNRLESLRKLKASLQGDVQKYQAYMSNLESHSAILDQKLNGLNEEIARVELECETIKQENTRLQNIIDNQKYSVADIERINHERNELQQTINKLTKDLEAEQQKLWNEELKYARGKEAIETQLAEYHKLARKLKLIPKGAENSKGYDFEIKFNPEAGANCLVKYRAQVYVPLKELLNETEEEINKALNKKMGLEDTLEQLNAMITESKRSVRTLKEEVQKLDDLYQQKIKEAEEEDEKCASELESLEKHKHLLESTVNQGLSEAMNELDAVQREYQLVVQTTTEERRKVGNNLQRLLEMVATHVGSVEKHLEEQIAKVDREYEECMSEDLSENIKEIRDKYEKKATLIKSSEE

Experiments:
[1] = target: KNL1 complex (Knl1 residues 1870–2342 with ZWINT) (human) (UniProt Q8NG31+O95229); experiment: cryo-EM structure; NDC80C, MIS12C and KNL1C mixed 1:1:1 and run on Superose 6 in 20 mM HEPES pH 8.0, 80 mM NaCl, 1 mM MgCl2, 1 mM TCEP; about 1 mg/ml on UltrAuFoil grids; 3.0 Å (MIS12C heads 3.8 Å); both purified
[2] = target: MIS12 complex with Nsl1 E219R V220R F221A and Dsn1 P332W R334A L336R combined (Homo sapiens) (UniProt Q9H081+Q6P1K2+Q9H410+Q96IY1); experiment: SEC; MIS12C variant mixed with NDC80C at 4 µM each; 20 mM HEPES pH 7.8, 150 mM NaCl, 0.5 mM TCEP; Superose 6; fractions on SDS-PAGE; both purified
[3] = target: MIS12 complex (Mis12, Pmf1, Dsn1, Nsl1), wild type, full length (Homo sapiens) (UniProt Q9H081+Q6P1K2+Q9H410+Q96IY1); experiment: ITC; peptide in the syringe titrated into the MIS12C variant in the cell; 20 °C; 20 mM HEPES pH 7.5, 100 mM NaCl, 1 mM TCEP; single-site binding model; duplicate or triplicate; both purified
[4] = target: MIS12 complex with Nsl1 truncated at the C terminus (Nsl1 1–264; residues 265–281 deleted) (Homo sapiens) (UniProt Q9H081+Q6P1K2+Q9H410+Q96IY1); experiment: SEC; MIS12C or MIS12C^Nsl1ΔC mixed with Knl1 2131–2337 or its mutants at 4 µM each; 20 mM HEPES pH 7.8, 150 mM NaCl, 0.5 mM TCEP; Superose 6; fractions on SDS-PAGE; both purified

binding [1]: no binding
binding [2]: no binding (tested: 4 µM each)
Molecule: NDC80 complex (Ndc80, Nuf2, Spc24, Spc25), full length, unmodified (from UniProt O14777 1-642; Q9BZD4 1-464; Q8NBT2 1-197; Q9HBM1 1-224)

binding [3]: no binding
Molecule: RRQSAAAASMKETNRRKSLHPIAW (N-terminal acetylation; C-terminal amidation) [Dsn1^92–113 peptide with W96A R97A R98A]

binding [4]: no binding (tested: 4 µM each)
B1: Knl1 residues 2131–2337, mut2 (S2270R S2272W) (domain or fragment, H. sapiens, UniProt Q8NG31 2131-2337, looked up)
chain: SLSEWDVVEWSDDQAVFTFVYDTIQLTITFEESVVGFPFLDKRYRKIVDVNFQSLLDEDQAPPSSLLVHKLIFQYVEEKESWKKTCTTQHQLPKMLEEFSLVVHHCRLLGEEIEYLKRWGPNYNLMNIDINNNELRLLFRSWAAFAKFEITLFLSAYYPSVPLPSTIQNHVGNTSQDDIATILSKVPLENNYLKNVVKQIYQDLFQD
notes: Knl1, human, residues 2131-2337, RWD-C surface mutant 2; also called Knl1^mut2; KNL1^mut2; source: E. coli BL21 (DE3), purified (Ni-NTA, reverse IMAC, Superdex 75); not shown: His6, N-terminal, cleaved
